Paper PMC2670261, “Characterization of the interaction between Actinin-Associated LIM Protein (ALP) and the rod domain of α-actinin” (BMC Cell Biology, 2009)
These are yes or no findings as the source states them, for the method shown.

Sequences of proteins named here, by UniProt entry; tags and fusion partners are left off. Residues count along the entry.
α-actinin 2 rod domain, spectrin repeats 1-4 (R1-R4) (P35609, residues 274-746): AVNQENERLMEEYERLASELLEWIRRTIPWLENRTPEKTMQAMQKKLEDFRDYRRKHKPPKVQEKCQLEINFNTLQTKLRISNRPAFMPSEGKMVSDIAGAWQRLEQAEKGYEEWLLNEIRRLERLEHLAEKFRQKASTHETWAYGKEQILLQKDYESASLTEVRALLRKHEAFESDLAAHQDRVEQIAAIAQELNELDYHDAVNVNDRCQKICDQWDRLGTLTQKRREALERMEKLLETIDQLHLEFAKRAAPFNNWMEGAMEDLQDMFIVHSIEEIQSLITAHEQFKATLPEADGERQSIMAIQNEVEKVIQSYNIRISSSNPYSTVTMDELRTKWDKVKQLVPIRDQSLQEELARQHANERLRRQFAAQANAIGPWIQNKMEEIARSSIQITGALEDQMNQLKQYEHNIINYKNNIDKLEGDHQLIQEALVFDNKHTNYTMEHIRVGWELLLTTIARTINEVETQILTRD
α-actinin 2 spectrin repeats 2 and 3 (R2-R3) (P35609, residues 371-637): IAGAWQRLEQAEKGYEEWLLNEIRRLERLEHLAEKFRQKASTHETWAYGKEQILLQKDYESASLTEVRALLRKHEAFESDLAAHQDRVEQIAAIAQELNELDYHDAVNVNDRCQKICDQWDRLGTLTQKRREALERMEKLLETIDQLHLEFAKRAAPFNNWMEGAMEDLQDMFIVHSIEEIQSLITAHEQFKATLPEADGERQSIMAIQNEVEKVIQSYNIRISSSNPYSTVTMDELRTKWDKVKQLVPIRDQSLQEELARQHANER

Experiments:
[1] = target: T1, ALP peptide 3 (residues 175-196) (human); assay: SPR; Biacore 3000; ALP107-273 or peptide 3 immobilised by amine coupling on CM5; R1-R4 or R2-R3 as soluble analyte; 20 mM Tris pH 7.4, 150 mM NaCl, 0.005% P20; apparent Kd; both purified
T1 sequence (peptide): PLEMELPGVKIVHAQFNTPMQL

[2] = target: α-actinin 2 rod domain, spectrin repeats 1-4 (R1-R4) (human) (UniProt P35609); assay: SPR; Biacore 3000; peptide 3 compared with its scrambled version on the rod domain (Fig 7D); which one was immobilised is not told; 20 mM Tris pH 7.4, 150 mM NaCl, 0.005% P20; both purified

Molecule: α-actinin 2 spectrin repeats 2 and 3 (R2-R3) (from UniProt P35609 371-637) (domain or fragment)
- binding [1]: no binding

Molecule: MNKPEQALLVQIHPLVTEPFMG [scrambled version of peptide 3]
- binding [2]: no binding
